{"source": "the supplement of paper PMC5949888", "note": "Most values lie at the floor of the assay. Slopes are relative: functional sequences can read slightly below zero."}
{"test_system": "Saccharomyces cerevisiae PS128 hsf1 delta, HSF1(1-493) fusion", "assay": "growth estimate (transactivation domain function in HSF1 fusion, heat-shock survival) (a.u. (slope of normalised read count over time)); higher = stronger growth at 37°C, i.e. more transactivation activity", "conditions": "library: random library", "description": "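Random 60-nt DNA library encoding peptides of up to 20 aa, fused to the C-terminus of yeast HSF1 residues 1-493 (C-terminal TAD deleted) and expressed from the native HSF1 promoter on a CEN plasmid in hsf1-deleted S. cerevisiae PS128. Cells were selected at 37°C on -trp 5-FOA plates for 0, 2, 4, 6 and 8 days and amplicons were sequenced. Growth estimate is the slope of a robust linear fit of total-sum-normalised read counts (normalised to the first time point) over time, using at least 2 replicates. Sequences are classed functional (TAD activity) above a threshold of -0.13, set from stop-codon control sequences.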"}
{"substance": "IPFPTSRVIPVRGGVYSNAC", "growth estimate": "< -0.25"}
{"substance": "CFLMLRTACNNRNASSS", "growth estimate": "< -0.25"}
{"substance": "FASLLYVVFDTVVT", "growth estimate": "< -0.25"}
{"substance": "KLVEQAKVLLISYWRIEPAG", "growth estimate": "< -0.25"}
{"substance": "YSGRVGGPRMPRRGRF", "growth estimate": "< -0.25"}
{"substance": "GWLFGDCATS", "growth estimate": -0.229}
{"substance": "PKAVRMRGSKAPSVRLPGSK", "growth estimate": -0.107}
{"substance": "SRALFDWVPLRRCVERLSGD", "growth estimate": "< -0.25"}
{"substance": "YGHGQGEAVGGDCVGR", "growth estimate": "< -0.25"}
{"substance": "TYKADGSHRI", "growth estimate": "< -0.25"}
{"substance": "CLEHCTRKIKEYHGWPKVPK", "growth estimate": "< -0.25"}
{"substance": "ANSLKQLTHCLVGTAH", "growth estimate": "< -0.25"}
{"substance": "SGQFFLLSGCLRASSWFGP", "growth estimate": "< -0.25"}
{"substance": "NAIGMHDKCCRTEGVLWIPA", "growth estimate": -0.112}
{"substance": "GARFLTVRDALISPVFCYWW", "growth estimate": "< -0.25"}
{"substance": "WNECLTDEIVCQEEHGTVRA", "growth estimate": "< -0.25"}
{"substance": "LSRTMNARAASNQQGVRGTT", "growth estimate": "< -0.25"}
{"substance": "LPAIDLSKTPFYA", "growth estimate": -0.168}
{"substance": "LRRHIRMVD", "growth estimate": "< -0.25"}
{"substance": "LRLRLPGLPGHLHATLSR", "growth estimate": "< -0.25"}
{"substance": "LRSDMLWEALRNPGGRGRRV", "growth estimate": "< -0.25"}
{"substance": "LYTAQAVKVKTLGVLESY", "growth estimate": "< -0.25"}
{"substance": "RRRN", "growth estimate": "< -0.25"}
{"substance": "RVYPTHGFEARAREKVTV", "growth estimate": "< -0.25"}
{"substance": "PSALGVSQAPPGCE", "growth estimate": "< -0.25"}
{"substance": "AEKVLKYMTLRWTSLA", "growth estimate": "< -0.25"}
{"substance": "AEKTGGFRLDPAGSAHIASL", "growth estimate": "< -0.25"}
{"substance": "VGFPGLGFLRRNLWEACWGW", "growth estimate": "< -0.25"}
{"substance": "GLSGDVVSGNKVLYHGTVNG", "growth estimate": "< -0.25"}
{"substance": "HAN", "growth estimate": "< -0.25"}
{"substance": "EKLWG", "growth estimate": "< -0.25"}
{"substance": "TASHFET", "growth estimate": "< -0.25"}
{"substance": "VLSFYALALFLCAIERNVYG", "growth estimate": "< -0.25"}
{"substance": "KAINCEFSVAIKLPFGG", "growth estimate": "< -0.25"}
{"substance": "RSDLSERQRTLRIT", "growth estimate": "< -0.25"}
{"substance": "KLRSPDLAMPRQHIWLGDRW", "growth estimate": "< -0.25"}
{"substance": "QVL", "growth estimate": "< -0.25"}
{"substance": "QSVLGAIETSDDGDSVAREA", "growth estimate": "< -0.25"}
{"substance": "LRRPVRDTTKVGVTAFSTLS", "growth estimate": "< -0.25"}
{"substance": "PHPHLRDRCHYIWCLQSLRR", "growth estimate": "< -0.25"}
{"substance": "PPVGAETPGHGPNAVKRSIR", "growth estimate": "< -0.25"}
{"substance": "FYYLVPDVRSSKTWWGYGKL", "growth estimate": "< -0.25"}
{"substance": "SLRGNDLAILTAFKLRFRRR", "growth estimate": "< -0.25"}
{"substance": "KQQWQSPQSGEGGSPLSGHS", "growth estimate": "< -0.25"}
{"substance": "IHTEVSTAAQICTDE", "growth estimate": "< -0.25"}
{"substance": "GDAETSWPGVGL", "growth estimate": "< -0.25"}
{"substance": "GACGPSIRHSGQQQGPTR", "growth estimate": "< -0.25"}
{"substance": "YRVSYLCLGRSTSYCPWYCA", "growth estimate": "< -0.25"}
{"substance": "RGTARGRRSSRIWRMSSD", "growth estimate": "< -0.25"}
{"substance": "AMLLRHGPWPCRLG", "growth estimate": "< -0.25"}
{"substance": "VAIDVGQSCALRGRGEFFGI", "growth estimate": "< -0.25"}
{"substance": "TGVSVPVPALCGKERIIRGS", "growth estimate": "< -0.25"}
{"substance": "VTAANFVISPMIGFDDGERT", "growth estimate": "< -0.25"}
{"substance": "GYHDLLTVRPPPLSYLYGPE", "growth estimate": "< -0.25"}
{"substance": "RRVARLAPKISMCIVLSQYS", "growth estimate": -0.232}
{"substance": "SLGPVWILTPVSIRWALRGQ", "growth estimate": "< -0.25"}
{"substance": "LTDRGPEFHLYGVRIETIKP", "growth estimate": "< -0.25"}
{"substance": "LLVKLTGQVLGV", "growth estimate": "< -0.25"}
{"substance": "RKGVAR", "growth estimate": "< -0.25"}
{"substance": "APSRLCNVAVFEPGAGSVST", "growth estimate": "< -0.25"}
{"substance": "VTETRRGQQPSR", "growth estimate": "< -0.25"}
{"substance": "TSERMVSTSD", "growth estimate": "< -0.25"}
{"substance": "GVGGG", "growth estimate": "< -0.25"}
{"substance": "DFSLLQHVRLAAVASLLTPR", "growth estimate": "< -0.25"}
{"substance": "QVDIRVIRLDHTQGIIR", "growth estimate": "< -0.25"}
{"substance": "FLRWKFTG", "growth estimate": "< -0.25"}
{"substance": "TCPRSLAS", "growth estimate": "< -0.25"}
{"substance": "LHEWGYYVFSGGFGSITRGR", "growth estimate": "< -0.25"}
{"substance": "EARERWMGYIPAG", "growth estimate": "< -0.25"}
{"substance": "KAP", "growth estimate": "< -0.25"}
{"substance": "RGEH", "growth estimate": "< -0.25"}
{"substance": "SKG", "growth estimate": "< -0.25"}
{"substance": "RAPSACVKGPNGGQA", "growth estimate": "< -0.25"}
{"substance": "RLMSGFWRLNMLRTLDILAV", "growth estimate": "< -0.25"}
{"substance": "VTAHLGLALWPRSAAILSWA", "growth estimate": "< -0.25"}
{"substance": "SPQQSGSKKQAAHDKGAVPT", "growth estimate": "< -0.25"}
{"substance": "VIWNKWAVESCTLTGHPA", "growth estimate": "< -0.25"}
{"substance": "NTAADANTDTSVRCVADQGC", "growth estimate": "< -0.25"}
{"substance": "SRKGHSATGTKSATRSGSSD", "growth estimate": "< -0.25"}
{"substance": "RGPQRGTRLRAKRIVAAFAI", "growth estimate": "< -0.25"}
{"substance": "EAV", "growth estimate": "< -0.25"}
{"substance": "ESYMFCVRRS", "growth estimate": "< -0.25"}
{"substance": "ARVEVGKDDNFLLQWMKL", "growth estimate": "< -0.25"}
{"substance": "SRENHG", "growth estimate": "< -0.25"}
{"substance": "CFSYQQRRFNGMRKPN", "growth estimate": "< -0.25"}
{"substance": "SHSGASGTVVLEIHACAQVA", "growth estimate": "< -0.25"}
{"substance": "HVGMWALSIGRWFLTSHL", "growth estimate": "< -0.25"}
{"substance": "LGHCTLVGCDFQANS", "growth estimate": "< -0.25"}
{"substance": "IHSRGHMTRNHATRSRAIGP", "growth estimate": "< -0.25"}
{"substance": "LLCSLFTPHVRYV", "growth estimate": -0.216}
{"substance": "SVREITGVWTDLKGNGCSGG", "growth estimate": "< -0.25"}
{"substance": "HVRFSLSEFHAHREN", "growth estimate": "< -0.25"}
